Measured data: PubChem BioAssay AID1259405 (NCATS, 2018)

Purpose: 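Mouse-designed siRNAs used to find CHO productivity engineering targets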 (primary screen)
Cells: Chinese hamster CHO-K1 ovary cells with stable secreted eGFP expression
Reagent: single siRNA against mouse genes, 0.8 pmol siRNA per well (2 µl of 400 nM stock)
Duration: 3 days
Detection: 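Per-well intracellular GFP measured by laser scanning cytometry, plus viability from ATP luminescence, each relative to plate median of non-targeting control wells, in %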
Direction: GFP, % of control: higher = more GFP per well, higher productivity; viability (ATP), % of control: higher = more viable cells (more ATP)
Call rule: 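a knock-down is called active if GFP reaches 120% or more of non-targeting control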
This is an unselected part of about 50,000 deposited reagents. In the full data, about 4,000 (8%) got an active call. 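Mouse siRNA library applied to hamster cells; one well for each siRNA.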 Reagents against one gene are numbered here.

gene knocked down,reagent no.,"GFP, % of control","viability (ATP), % of control",outcome
Eci1,1,97.4,102,inactive
Eci1,2,83.4,68.6,inactive
Eci1,3,84.7,53.2,inactive
Luc7l2,1,65,73.3,inactive
Luc7l2,2,46.7,64.2,inactive
Luc7l2,3,76.6,81.2,inactive
Slit2,1,64.4,82,inactive
Slit2,2,56.7,61.5,inactive
Slit2,3,76.2,78,inactive
Fbxw13,1,182,122,active
Fbxw13,2,43.6,57.9,inactive
Fbxw13,3,108,78.6,inactive
Rrp36,1,45.1,42.1,inactive
Rrp36,2,73.8,86.4,inactive
Rrp36,3,105,101,inactive
Tcf20,1,109,93.4,inactive
Tcf20,2,78.5,81.1,inactive
Tcf20,3,85.2,96.4,inactive
Tlm,1,72.3,70.5,inactive
Tlm,2,85,104,inactive
Tlm,3,111,80.4,inactive
Fkbp7,1,58.2,86,inactive
Fkbp7,2,51.9,45.6,inactive
Fkbp7,3,134,65.4,active
Sack1h,1,124,98.3,active
Sack1h,2,58.3,70.2,inactive
Sack1h,3,96.3,82,inactive
Spag11a,1,63.1,61.9,inactive
Spag11a,2,85.1,65.5,inactive
Spag11a,3,127,98.3,active
Kat14,1,80.7,93,inactive
Kat14,2,114,87.5,inactive
Ilf3,1,78.9,76.9,inactive
Ilf3,2,98.6,64.6,inactive
Ilf3,3,54.3,61.7,inactive
